The target of this experiment is Flag-human GSDMD (p3 × Flag-hGSDMD-FL) (human) (UniProt P57764). Put plainly: affinity purification with mass spectrometry; HEK293T cells co-transfected with SYVN1-Myc and Flag-GSDMD; anti-Flag immunoprecipitates resolved on SDS-PAGE, bands digested with trypsin, LC-MS/MS.

Amino acid sequences for entries named in this document (tags omitted).
UniProt P57764: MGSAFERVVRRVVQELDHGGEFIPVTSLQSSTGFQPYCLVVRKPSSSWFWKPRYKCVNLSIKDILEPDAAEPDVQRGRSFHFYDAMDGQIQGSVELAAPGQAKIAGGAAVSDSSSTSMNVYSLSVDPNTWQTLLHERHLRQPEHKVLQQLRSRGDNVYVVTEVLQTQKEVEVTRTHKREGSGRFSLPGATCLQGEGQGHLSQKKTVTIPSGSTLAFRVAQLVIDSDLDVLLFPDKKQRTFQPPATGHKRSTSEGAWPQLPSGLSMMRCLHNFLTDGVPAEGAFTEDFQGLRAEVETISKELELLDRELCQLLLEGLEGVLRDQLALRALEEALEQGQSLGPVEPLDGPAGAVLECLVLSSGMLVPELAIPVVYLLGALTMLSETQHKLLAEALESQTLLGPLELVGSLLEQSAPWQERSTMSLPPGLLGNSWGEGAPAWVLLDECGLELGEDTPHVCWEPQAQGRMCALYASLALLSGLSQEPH
UniProt Q86TM6: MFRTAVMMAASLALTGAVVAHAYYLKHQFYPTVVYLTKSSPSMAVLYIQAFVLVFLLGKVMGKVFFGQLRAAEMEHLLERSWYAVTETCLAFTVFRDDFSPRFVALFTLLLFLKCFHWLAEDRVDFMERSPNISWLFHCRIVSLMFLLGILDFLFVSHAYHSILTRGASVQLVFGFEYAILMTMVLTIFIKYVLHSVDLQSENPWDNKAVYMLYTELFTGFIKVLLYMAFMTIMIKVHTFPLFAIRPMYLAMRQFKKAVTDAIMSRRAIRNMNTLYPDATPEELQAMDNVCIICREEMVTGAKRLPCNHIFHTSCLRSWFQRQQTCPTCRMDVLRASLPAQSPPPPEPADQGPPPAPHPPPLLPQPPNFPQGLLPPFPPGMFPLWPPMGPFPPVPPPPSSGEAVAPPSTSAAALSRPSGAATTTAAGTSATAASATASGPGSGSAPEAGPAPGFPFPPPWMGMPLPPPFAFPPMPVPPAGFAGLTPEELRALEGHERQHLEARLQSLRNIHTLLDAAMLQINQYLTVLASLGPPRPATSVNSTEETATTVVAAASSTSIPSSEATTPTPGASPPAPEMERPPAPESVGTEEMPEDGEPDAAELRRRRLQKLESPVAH

No constants are given. Whether binding was seen depends on the method and setting. In cells and extracts the contact can be indirect. A yes stands for co-enrichment or nearness to the bait. Other partners may have been found.

In the case of “SYVN1-Myc (pcDNA3.1-SYVN1-Myc) (from UniProt Q86TM6 1-617) (enzyme)”, the binding result is “binds”.

For the origin of these results see publication PMC8814081.
